# Measurements as given in PubChem BioAssay AID504467 (National Center for Advancing Translational Sciences (NCATS), 2011).
# The campaign covered roughly 330,000 compounds. About 7,700 (2.3%) were called active. The inconclusive results got no clear call from the source; some entries with a clear call stand among them for comparison. Calls come from the whole dose curve; as a rule, active = well fitted inhibition curve with a large enough effect; inconclusive = small, poorly fitted or top-dose-only effect, or effect the other way; inactive = flat fitted curve, though single readings scatter. Where the call is inconclusive, the potency comes from a doubtful curve fit.
# Experiment: qHTS screen for small molecules that inhibit ELG1-dependent DNA repair in human embryonic kidney (HEK293T) cells expressing luciferase-tagged ELG1; note: nearly all actives have a fitted effect of over 55% in size
# Details: HEK293T ELG1-luciferase reporter, luminescence, 16 h, DNA damage induced by 5-fluorouridine; activity change, negative = inhibition: at 46.1 µM (top of the series)
# In short: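 Luminescence from the luciferase reporter, measured 30 min after ONE-Glo reagent at room temperature, was the read-out. Beforehand, 2,000 cells per well were exposed for 16 hr at 37 °C to 5-fluorouridine together with compound or vehicle.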
# % is set by controls: 0 for no effect and ±100 for the full control effect; potency is the fitted concentration of half-maximal effect.
Structure (SMILES),Potency,"activity change, negative = inhibition"
O=C(Cc1cccs1)NCc1cccc(F)c1,"inconclusive: 20.6 µM [activator, partial curve]",
O=S1(=O)N=C(N/N=C/c2ccco2)c2ccccc21,,inconclusive: 29.5% [activator]
CS(=O)(=O)c1[nH]nc(-c2ccccc2)c1C#N,,inactive: 19.3%
Cc1ccc(-n2nnnc2SCC(=O)Nc2cccnc2Cl)cc1,,inactive: -5.98%
O=C(CSc1nc2cc(Cl)ccc2s1)c1cc2ccccc2o1,"inconclusive: 20.6 µM [activator, partial curve, poor fit]",
CCc1nnc2c3cnn(-c4ccccc4)c3ncn12,"inconclusive: 5.17 µM [activator, full curve]",
CCCCN1C=CC(=C2C(=O)c3ccccc3C2=O)C=C1,"inconclusive: 0.058 µM [activator, partial curve, poor fit]",
CCc1nnc(NC(=O)c2ccc(Br)o2)s1,"inconclusive: 18.3 µM [activator, single point]",
COc1ccc(CCN(C)CCC(=O)Nc2cc(C)ccc2C)cc1OC,"inconclusive: 20.6 µM [inhibitor, single point]",
CCOc1cc(C)c(S(=O)(=O)Nc2ccc(Cl)cn2)cc1C,,inactive: 5.43%
CCC(=O)n1nc(-c2ccccc2)nc1N,"inconclusive: 16.4 µM [activator, partial curve, poor fit]",
COc1cc2c(cc1OC)CN(C(=O)c1ccc(S(=O)(=O)N3CCCCCC3)cc1)CC2,"inconclusive: 16.4 µM [inhibitor, partial curve]",
O=C(COC(=O)c1cccnc1Cl)Nc1ccc(N2CCCCC2)cc1,"inconclusive: 20.6 µM [activator, single point]",
COc1cc(NC(=O)c2ccccc2)cc(OC)c1,"inconclusive: 11.2 µM [activator, partial curve, poor fit]",
Cn1cccc1C(=O)Nc1ccc(N2CCOCC2)cc1,"inconclusive: 2.91 µM [activator, partial curve]",
CCc1ccc(N=C2NC(=O)/C(=C/c3cc(OC)c(OC)c(OC)c3)S2)cc1,"inconclusive: 29.1 µM [inhibitor, single point]",
CCOC(=O)N1CCN(C(=O)CN(c2ccccc2OC)S(=O)(=O)c2ccc(OC)cc2)CC1,,inactive: 1.71%
CCCc1cc(C(N)=O)c(NC(=O)c2ccco2)s1,"inconclusive: 14.6 µM [activator, partial curve]",
CC(=NNC(=O)CSc1nc2ccccc2o1)c1ccco1,"inconclusive: 10.3 µM [activator, partial curve]",
COc1ccc(C(=O)NNC(=O)CSc2nnc(-c3cccnc3)o2)cc1,,inactive: 22.2%
COc1ccccc1NC(=O)N(CCN1CCOCC1)Cc1cc2cc(C)cc(C)c2[nH]c1=O,"inconclusive: 6.51 µM [inhibitor, partial curve]",
O=C(O)c1cc(/C=N\O)ccc1OCc1ccccc1,"inconclusive: 0.116 µM [activator, full curve, poor fit]",
COc1ccc(Nc2nc(N)nc(CSc3nc(C)cc(C)n3)n2)cc1,,inactive: -1.73%

# Structural class, the compounds so far containing a thiophene ring, fused or not.
Structure (SMILES),Potency,"activity change, negative = inhibition"
O=C(Cc1cccs1)NCc1cccc(F)c1,"inconclusive: 20.6 µM [activator, partial curve]",
CCCc1cc(C(N)=O)c(NC(=O)c2ccco2)s1,"inconclusive: 14.6 µM [activator, partial curve]",

# (cont.)

Structure (SMILES),Potency,"activity change, negative = inhibition"
O=C(CCC(=O)N1CCN(c2ccc(C(F)(F)F)cn2)CC1)c1cccs1,,inactive: -9.65%
COC(=O)c1ccc(N2C(=O)CC(N3CCC(O)(c4ccc(Br)cc4)CC3)C2=O)cc1 (centres undefined),,inactive: -7.75%
O=C(CSCc1ccc(Cl)cc1Cl)Nc1nccs1,"inconclusive: 18.4 µM [activator, partial curve, poor fit]",
COc1ccc(CCNC(=O)c2nnn(-c3cccc(C)c3)c2N)cc1OC,"inconclusive: 16.4 µM [inhibitor, partial curve]",
Nc1nc(NC(=O)c2ccc(F)cc2)ns1,"inconclusive: 23.1 µM [activator, partial curve, poor fit]",
COc1ccccc1Oc1ncnc2c1cnn2-c1ccccc1,"inconclusive: 13 µM [activator, partial curve]",
COc1ccc(N2Cc3ccccc3/C2=N\C(=O)Nc2ccccc2)cc1,,inactive: 11.6%
COc1ccc(/C=N/Nc2nonc2N)cc1OC,"inconclusive: 10.3 µM [activator, partial curve]",
C[C@H]1CN([C@@H](C)CO)C(=O)c2cccc(NS(=O)(=O)c3ccc(F)cc3)c2O[C@H]1CN(C)Cc1ccc(Cl)c(Cl)c1,"inconclusive: 14.6 µM [inhibitor, single point]",
CN(C)S(=O)(=O)c1ccc(C(=O)OCc2ccc([N+](=O)[O-])cc2)cc1,"inconclusive: 14.6 µM [activator, partial curve]",
CC(C)c1cc(C(=O)O)n(-c2ccccc2)n1,,inactive: -3.14%
CCc1ccc(-c2cc(C)no2)cc1S(=O)(=O)N1CCN(c2ccccn2)CC1,,inactive: -0.865%
COc1cc(C(=O)Nc2cccc(-c3cn4cccnc4n3)c2)cc(OC)c1OC,"inconclusive: 20.6 µM [inhibitor, single point]",
COc1ccc([N+](=O)[O-])cc1NC(=O)C1CCCO1 (centres undefined),,inactive: 0.28%
COC(=O)c1cccc(-c2ccc(C(c3c(C)[nH][nH]c3=O)c3c(C)[nH][nH]c3=O)o2)c1,"inconclusive: 4.61 µM [inhibitor, partial curve, poor fit]",
COc1ccc(NC(=O)CCS(=O)(=O)c2ccc3c(c2)CCN3C(C)=O)cc1,,inactive: 13.4%
Cc1cc(C)c2sc(N(CCN(C)C)C(=O)c3c(F)cccc3F)nc2c1,"inconclusive: 18.3 µM [inhibitor, single point]",
CCOC(=O)/C(C#N)=C/C=C1\C=Cc2ccccc2N1CC,"inconclusive: 16.4 µM [inhibitor, single point]",
C=C(CC[C@@H](O)C(C)(C)O)[C@H]1CC[C@]2(C)[C@@H]1CCC1[C@@]3(C)CCC(=O)C(C)(C)C3CC[C@]12C (some centres undefined),,inactive: 11.2%
C/C(O)=C(\C#N)c1nc2ccccc2[nH]1,,inactive: -5.6%
O=C(CNCCC1=CCCCC1)Nc1ccc(N2CCCCCC2)cc1,,inactive: -2.04%
CCc1ccc(-n2nc3cc(C)c(N)cc3n2)cc1,"inconclusive: 2.31 µM [activator, full curve]",
Cc1cccc(C)c1OCC(O)CNS(=O)(=O)c1ccccc1C(=O)N1CCCCC1 (centres undefined),active: 16.4 µM,

# 15 entries out of the list, sorted by number of heavy atoms, rising:
Structure (SMILES),Potency,"activity change, negative = inhibition"
C/C(O)=C(\C#N)c1nc2ccccc2[nH]1,,inactive: -5.6%
Nc1nc(NC(=O)c2ccc(F)cc2)ns1,"inconclusive: 23.1 µM [activator, partial curve, poor fit]",
CC(C)c1cc(C(=O)O)n(-c2ccccc2)n1,,inactive: -3.14%
O=C(CSCc1ccc(Cl)cc1Cl)Nc1nccs1,"inconclusive: 18.4 µM [activator, partial curve, poor fit]",
CCOC(=O)/C(C#N)=C/C=C1\C=Cc2ccccc2N1CC,"inconclusive: 16.4 µM [inhibitor, single point]",
COc1ccccc1Oc1ncnc2c1cnn2-c1ccccc1,"inconclusive: 13 µM [activator, partial curve]",
CN(C)S(=O)(=O)c1ccc(C(=O)OCc2ccc([N+](=O)[O-])cc2)cc1,"inconclusive: 14.6 µM [activator, partial curve]",
O=C(CNCCC1=CCCCC1)Nc1ccc(N2CCCCCC2)cc1,,inactive: -2.04%
O=C(CCC(=O)N1CCN(c2ccc(C(F)(F)F)cn2)CC1)c1cccs1,,inactive: -9.65%
COc1ccc(NC(=O)CCS(=O)(=O)c2ccc3c(c2)CCN3C(C)=O)cc1,,inactive: 13.4%
CCc1ccc(-c2cc(C)no2)cc1S(=O)(=O)N1CCN(c2ccccn2)CC1,,inactive: -0.865%
COc1cc(C(=O)Nc2cccc(-c3cn4cccnc4n3)c2)cc(OC)c1OC,"inconclusive: 20.6 µM [inhibitor, single point]",
COC(=O)c1ccc(N2C(=O)CC(N3CCC(O)(c4ccc(Br)cc4)CC3)C2=O)cc1 (centres undefined),,inactive: -7.75%
C=C(CC[C@@H](O)C(C)(C)O)[C@H]1CC[C@]2(C)[C@@H]1CCC1[C@@]3(C)CCC(=O)C(C)(C)C3CC[C@]12C (some centres undefined),,inactive: 11.2%
C[C@H]1CN([C@@H](C)CO)C(=O)c2cccc(NS(=O)(=O)c3ccc(F)cc3)c2O[C@H]1CN(C)Cc1ccc(Cl)c(Cl)c1,"inconclusive: 14.6 µM [inhibitor, single point]",

# Further compounds

Structure (SMILES),Potency,"activity change, negative = inhibition"
CC(C)(C)Nc1ncnc2sc(-c3ccccc3)cc12,"inconclusive: 23.1 µM [inhibitor, single point]",
Cc1csc(NC(=O)c2cccc(Cn3nc(C)c(Br)c3C)c2)n1,"inconclusive: 29.1 µM [inhibitor, single point]",
COc1ccccc1CN(Cc1nc2ccccc2c(=O)[nH]1)S(=O)(=O)c1ccc2ccccc2c1,active: 3.66 µM,
CCC(C)Sc1nc2c(c(=O)[nH]c(=O)n2C)n1Cc1ccccc1Cl (centres undefined),"inconclusive: 20.6 µM [inhibitor, single point]",
N#CC1=C(N)Nc2nc3ccccc3n2C1c1ccc(Cl)cc1 (centres undefined),"inconclusive: 29.1 µM [activator, single point]",
COc1ccc(C(=O)NCC(=O)OCC(=O)Nc2cc(OC)ccc2OC)cc1,"inconclusive: 23.1 µM [activator, partial curve, poor fit]",
COc1cccc2oc3ccc(C#Cc4ccccn4)cc3c(=O)c12,"inconclusive: 1.16 µM [activator, partial curve]",
CCOC(=O)c1sc(NC(=S)NC(=O)c2ccco2)nc1C,"inconclusive: 13 µM [activator, partial curve]",
O=C(NCc1ccco1)c1ccc(C(=O)NCc2ccco2)s1,,inactive: -9.57%
CC(=O)c1cccc(NC(=O)c2cnn3ccccc23)c1,"inconclusive: 11.6 µM [activator, partial curve]",
OCC1CCN(Cc2nc(Cc3ccccc3Cl)no2)CC1,"inconclusive: 23.1 µM [activator, single point]",
COc1ccc2[nH]c(=O)c(CN(CC3CCCO3)C(=O)Nc3ccccc3)cc2c1 (centres undefined),"inconclusive: 16.4 µM [inhibitor, single point]",
Cc1ccc(NC(=O)CCN2C(=O)CSC2=O)cc1,"inconclusive: 29.1 µM [activator, single point]",
COC(=O)/C=c1/s/c(=C(/C#N)C(=O)NCc2ccccc2)n(-c2ccccc2)c1=O,"inconclusive: 9.2 µM [activator, partial curve, poor fit]",
C[C@]12c3[nH]c4ccc(Cl)cc4c3CCN1C(=O)[C@@H](CC(=O)NCCC1=CCCCC1)C[C@@H]2C(=O)N1CCOCC1,"inconclusive: 18.3 µM [inhibitor, partial curve, poor fit]",
Cc1cc(NC(=O)CCC(=O)N(Cc2ccco2)C(C(=O)NC2CCCCC2)c2ccccc2)no1 (centres undefined),"inconclusive: 23.1 µM [inhibitor, single point]",
Cn1c(CCNC(=O)c2ccco2)nc2cc(NC(=O)NC3CCCCC3)ccc21,"inconclusive: 5.8 µM [activator, full curve]",
Cc1cccc(Nc2nnc(SCC(=O)Nc3ccccc3[N+](=O)[O-])s2)c1C,"inconclusive: 32.6 µM [inhibitor, single point]",
Nc1ccc2nc(SCC(=O)N3CCN(c4ccccc4)CC3)sc2c1,active: 2.59 µM,
Clc1ccc(Cn2ccc(C3CC3)n2)cc1,,inactive: 4.07%
O=C(Nc1cccc(-c2nc3ccccc3[nH]2)c1)c1ccc(C(=O)Nc2cccc(-c3nc4ccccc4[nH]3)c2)cc1,"inconclusive: 16.4 µM [activator, partial curve]",
CCOC(=O)c1ccc(NCc2nc3ccccc3n2C)cc1,"inconclusive: 16.4 µM [activator, partial curve]",
Cc1cccc(N(CC(=O)NC(C)(C)C)C(=O)CNC(=O)c2cccs2)c1C,,inactive: -2.24%
